Source: paper PMC6927743
No constants are given. Whether binding was seen depends on the method and setting. In cells and extracts the contact can be indirect. Some binding calls cover weakened binding; strength is not graded here. For part of these data: Tags and fused reporters may be left off the sequences shown.

Protein sequences, listed by entry. Tags and fused reporters are not part of them. Residues count along the entry.
UniProt P52800, residues 29-336: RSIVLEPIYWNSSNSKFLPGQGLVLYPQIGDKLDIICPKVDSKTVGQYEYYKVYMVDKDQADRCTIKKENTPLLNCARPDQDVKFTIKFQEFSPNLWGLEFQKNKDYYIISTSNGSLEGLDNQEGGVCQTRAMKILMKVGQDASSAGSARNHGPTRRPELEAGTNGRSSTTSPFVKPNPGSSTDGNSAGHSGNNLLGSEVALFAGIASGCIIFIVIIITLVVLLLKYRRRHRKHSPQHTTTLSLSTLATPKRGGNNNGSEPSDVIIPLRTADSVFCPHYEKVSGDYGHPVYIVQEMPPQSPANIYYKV
UniProt P35918, residues 20-1345: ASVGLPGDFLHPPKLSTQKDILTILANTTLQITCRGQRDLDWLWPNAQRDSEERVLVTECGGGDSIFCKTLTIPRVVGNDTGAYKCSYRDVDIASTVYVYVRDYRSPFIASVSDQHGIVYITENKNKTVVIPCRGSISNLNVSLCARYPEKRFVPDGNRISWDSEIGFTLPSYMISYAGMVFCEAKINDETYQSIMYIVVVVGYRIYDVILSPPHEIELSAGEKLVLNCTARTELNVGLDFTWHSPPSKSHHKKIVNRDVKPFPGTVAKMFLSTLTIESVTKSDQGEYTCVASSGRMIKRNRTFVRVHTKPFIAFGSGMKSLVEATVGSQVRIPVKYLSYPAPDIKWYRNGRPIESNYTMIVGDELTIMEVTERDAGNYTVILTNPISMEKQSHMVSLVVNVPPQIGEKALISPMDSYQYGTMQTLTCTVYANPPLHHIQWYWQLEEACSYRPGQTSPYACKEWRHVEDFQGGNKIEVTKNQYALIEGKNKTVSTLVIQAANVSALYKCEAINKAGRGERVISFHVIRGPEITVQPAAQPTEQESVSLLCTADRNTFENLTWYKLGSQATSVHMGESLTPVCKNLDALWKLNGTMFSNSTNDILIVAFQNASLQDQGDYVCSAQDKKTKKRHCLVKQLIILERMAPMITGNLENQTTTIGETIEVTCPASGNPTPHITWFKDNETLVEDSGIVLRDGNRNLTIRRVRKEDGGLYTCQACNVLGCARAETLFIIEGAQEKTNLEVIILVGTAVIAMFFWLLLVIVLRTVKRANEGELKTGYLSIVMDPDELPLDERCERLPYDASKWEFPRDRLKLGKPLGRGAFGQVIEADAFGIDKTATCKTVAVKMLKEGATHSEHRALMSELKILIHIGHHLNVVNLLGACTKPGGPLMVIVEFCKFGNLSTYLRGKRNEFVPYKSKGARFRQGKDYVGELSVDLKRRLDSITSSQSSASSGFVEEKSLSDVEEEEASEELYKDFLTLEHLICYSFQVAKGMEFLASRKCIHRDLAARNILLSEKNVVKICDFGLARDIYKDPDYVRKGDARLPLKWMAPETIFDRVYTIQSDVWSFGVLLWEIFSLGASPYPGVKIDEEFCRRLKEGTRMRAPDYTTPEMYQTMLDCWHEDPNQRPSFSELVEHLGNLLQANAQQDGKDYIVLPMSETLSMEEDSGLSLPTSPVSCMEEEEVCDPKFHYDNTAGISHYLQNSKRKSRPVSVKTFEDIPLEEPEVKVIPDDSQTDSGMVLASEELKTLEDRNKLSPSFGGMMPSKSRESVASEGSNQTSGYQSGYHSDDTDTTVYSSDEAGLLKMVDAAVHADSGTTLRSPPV

Experiments:
[1] = molecular target: ephrinB2 (mouse (endogenous in primary hippocampal neurons)) (UniProt P52800); experiment: proximity ligation; cultured wild type hippocampal neurons 14 DIV, with or without VEGF for 30 min; ephrinB2 detected with pre-clustered EphB4-Fc, VEGFR2 with goat anti-VEGFR2 antibody (AF644); human IgG Fc fragment as negative control
[2] = molecular target: ephrinB2 (mouse (endogenous in primary hippocampal neurons)) (UniProt P52800); experiment: co-IP; lysate of primary wild type hippocampal neurons 14 DIV; ephrinB2 pulled down with beads coupled with EphB4-Fc, Fc fragment as control; western blots with anti-VEGFR2 and anti-ephrinB2; lysis in 50 mM Tris/HCl pH 7.5, 1% Triton X-100, 150 mM NaCl, 4°C
[3] = molecular target: T1, Recombinant mouse EphB4-Fc chimera (mouse) (UniProt P54761); experiment: pull-down; EphB4-Fc coupled to beads, incubated with lysate of primary wild type hippocampal neurons 14 DIV; Fc fragment as control; western blot with anti-ephrinB2; only the target purified
T1 sequence: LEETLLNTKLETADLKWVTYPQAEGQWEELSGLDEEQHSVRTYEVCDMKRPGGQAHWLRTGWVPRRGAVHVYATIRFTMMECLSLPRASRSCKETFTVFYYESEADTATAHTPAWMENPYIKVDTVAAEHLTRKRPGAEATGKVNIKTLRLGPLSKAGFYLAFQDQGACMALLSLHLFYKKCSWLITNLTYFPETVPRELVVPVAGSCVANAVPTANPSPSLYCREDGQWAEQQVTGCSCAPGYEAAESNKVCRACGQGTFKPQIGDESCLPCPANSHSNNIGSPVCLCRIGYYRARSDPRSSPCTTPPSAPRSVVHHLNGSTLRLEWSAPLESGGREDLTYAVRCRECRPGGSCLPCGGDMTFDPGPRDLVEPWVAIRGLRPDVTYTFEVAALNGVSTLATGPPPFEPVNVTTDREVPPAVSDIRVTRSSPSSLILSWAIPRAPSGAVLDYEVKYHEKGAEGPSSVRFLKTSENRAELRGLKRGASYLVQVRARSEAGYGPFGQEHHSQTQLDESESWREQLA

| binding [1] | binding [2] | binding [3] | Substance |
| --- | --- | --- | --- |
| binds | binds | – | VEGFR2 (from UniProt P35918 20-1345) (receptor) |
| – | – | binds | ephrinB2 (from UniProt P52800 29-336) (ligand) |
